Laboratory results reported in patent US20160271244A1.

What was measured:
Test in all cases: Athena autoantigen assay
Cent B = target: Cent B
Histone = target: Histone
Jo 1 = target: Jo 1
RNP = target: RNP
SSA = target: SSA
Scl 70 = target: Scl 70
Athena autoantigen assay = substrate: SSB

B1: CH01 (antibody, V domains shown)
VH: EVQLVESGANVVRPGGSLRLSCKASGFIFENFGFSWVRQAPGKGLQWVAGLNWNGGDTRYADSVKGRFRMSRDNSRNFVYLDMDKVGVDDTAFYYCARGTDYTIDDAGIHYQGSGTFWYFDLWGRGTLVSVSS
VL: EIVLTQSPGTLSLSPGERATLSCRASHNVHPKYFAWYQQKPGQSPRLLIYGGSTRAAGIPGKFSGSGSGTDFTLTISRVDPEDFAVYYCQQYGGSPYTFGQGTKVEI
binding (Cent B): no binding (tested: score 22 at 50 ug/ml) | binding (Histone): no binding (tested: score 26 at 50 ug/ml) | binding (Jo 1): no binding (tested: score 3.5 at 50 ug/ml) | binding (RNP): no binding (tested: score 8 at 50 ug/ml) | binding (SSA): no binding (tested: score 8 at 50 ug/ml) | binding (Scl 70): no binding (tested: score 4 at 50 ug/ml) | binding (Athena autoantigen assay): no binding (tested: score 5.5 at 50 ug/ml)

Results are given in words; binding and its absence hold for the method and conditions named.
